# This is one part of the list.
# How the values were obtained:
# Experiment in all cases: glycan array binding signal (z-score within array); higher = stronger binding
# Details in all cases: glycan notation: IUPAC condensed, linker removed
# [1] = target: Neu5Ac(a2-6)Gal(b1-4)GlcNAc(b1-3)Gal(b1-4)GlcNAc(b1-3)Gal(b1-4)GlcNAc
# Method in brief: (§1)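 The binding signal is a Z-score computed within each array and averaged over linkers. Arrays of the same protein sequence at different concentrations or buffers were also averaged together. Data originate from 3228 arrays in the Consortium for Functional Glycomics database, kept only where the protein sequence was available.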
# [2] = target: Neu5Ac(a2-6)Gal(b1-4)GlcNAc(b1-3)Gal(b1-4)GlcNAc(b1-3)Gal(b1-4)GlcNAc(b1-2)Man(a1-3)[Neu5Ac(a2-6)Gal(b1-4)GlcNAc(b1-3)Gal(b1-4)GlcNAc(b1-3)Gal(b1-4)GlcNAc(b1-2)Man(a1-6)]GalNAc
# Method in brief: as §1
# [3] = target: Neu5Ac(a2-6)Gal(b1-4)GlcNAc(b1-3)Gal(b1-4)GlcNAc(b1-3)GalNAc
# Method in brief: as §1
# [4] = target: Neu5Ac(a2-6)Gal(b1-4)GlcNAc(b1-3)Gal(b1-4)GlcNAc(b1-3)[Neu5Ac(a2-6)Gal(b1-4)GlcNAc(b1-3)Gal(b1-4)GlcNAc(b1-6)]GalNAc
# Method in brief: as §1
# [5] = target: Neu5Ac(a2-6)Gal(b1-4)GlcNAc(b1-3)Gal(b1-4)GlcNAc(b1-6)[Gal(b1-3)]GalNAc
# Method in brief: as §1
# [6] = target: Neu5Ac(a2-6)Gal(b1-4)GlcNAc(b1-3)Gal(b1-4)[Fuc(a1-3)]GlcNAc(b1-3)Gal(b1-4)[Fuc(a1-3)]GlcNAc
# Method in brief: as §1
# [7] = target: Neu5Ac(a2-6)Gal(b1-4)GlcNAc(b1-3)GalNAc
# Method in brief: as §1
# [8] = target: Neu5Ac(a2-6)Gal(b1-4)GlcNAc(b1-3)[Neu5Ac(a2-6)Gal(b1-4)GlcNAc(b1-6)]GalNAc
# Method in brief: as §1
# [9] = target: Neu5Ac(a2-6)Gal(b1-4)GlcNAc(b1-6)GalNAc
# Method in brief: as §1
# [10] = target: Neu5Ac(a2-6)Gal(b1-4)GlcNAc(b1-6)[Gal(b1-3)GlcNAc(b1-3)]Gal(b1-4)Glc
# Method in brief: as §1
# [11] = target: Neu5Ac(a2-6)Gal(b1-4)GlcNAc(b1-6)[Gal(b1-3)]GalNAc
# Method in brief: as §1
# [12] = target: Neu5Ac(a2-6)Gal(b1-4)GlcNAc6S
# Method in brief: as §1
# Neu5Ac(a2-6)GalNAc = target: Neu5Ac(a2-6)GalNAc
# Method in brief: as §1
# [13] = target: Neu5Ac(a2-6)GalNAc(b1-4)GlcNAc
# Method in brief: as §1
# [14] = target: Neu5Ac(a2-6)GalNAc(b1-4)GlcNAc6S
# Method in brief: as §1
# [15] = target: Neu5Ac(a2-6)GlcNAc(b1-4)GlcNAc
# Method in brief: as §1
# [16] = target: Neu5Ac(a2-6)GlcNAc(b1-4)GlcNAc(b1-4)GlcNAc
# Method in brief: as §1
# Neu5Ac(a2-8)Neu5Ac = target: Neu5Ac(a2-8)Neu5Ac
# Method in brief: as §1
# [17] = target: Neu5Ac(a2-8)Neu5Ac(a2-3)Gal(b1-3)GalNAc(b1-4)[Neu5Ac(a2-3)]Gal(b1-4)Glc
# Method in brief: as §1
# [18] = target: Neu5Ac(a2-8)Neu5Ac(a2-3)Gal(b1-3)GalNAc(b1-4)[Neu5Ac(a2-8)Neu5Ac(a2-3)]Gal(b1-4)Glc
# Method in brief: as §1
# [19] = target: Neu5Ac(a2-8)Neu5Ac(a2-3)Gal(b1-4)Glc
# Method in brief: as §1
# [20] = target: Neu5Ac(a2-8)Neu5Ac(a2-3)Gal(b1-4)GlcNAc
# Method in brief: as §1
# [21] = target: Neu5Ac(a2-8)Neu5Ac(a2-3)[Gal(b1-3)GalNAc(b1-4)]Gal(b1-4)Glc
# Method in brief: as §1
# [22] = target: Neu5Ac(a2-8)Neu5Ac(a2-3)[GalNAc(b1-4)]Gal(b1-4)Glc
# Method in brief: as §1
# [23] = target: Neu5Ac(a2-8)Neu5Ac(a2-8)Neu5Ac
# Method in brief: as §1
# [24] = target: Neu5Ac(a2-8)Neu5Ac(a2-8)Neu5Ac(a2-3)Gal(b1-4)Glc
# Method in brief: as §1
# [25] = target: Neu5Ac(a2-8)Neu5Ac(a2-8)Neu5Ac(a2-3)[Gal(b1-3)GalNAc(b1-4)]Gal(b1-4)Glc
# Method in brief: as §1
# [26] = target: Neu5Ac(a2-8)Neu5Ac(a2-8)Neu5Ac(a2-3)[GalNAc(b1-4)]Gal(b1-4)Glc
# Method in brief: as §1
# [27] = target: Neu5Ac(a2-8)Neu5Ac(a2-8)Neu5Ac(a2-8)Neu5Ac(a2-3)[GalNAc(b1-4)]Gal(b1-4)Glc
# Method in brief: as §1
# [28] = target: Neu5Ac(a2-8)Neu5Gc(a2-3)Gal(b1-4)GlcNAc
# Method in brief: as §1
# [29] = target: Neu5Ac(b2-6)Gal(b1-4)GlcNAc
# Method in brief: as §1
# Neu5Ac(b2-6)GalNAc = target: Neu5Ac(b2-6)GalNAc
# Method in brief: as §1
# [30] = target: Neu5Ac9Ac(a2-3)Gal(b1-3)GlcNAc
# Method in brief: as §1
# [31] = target: Neu5Ac9Ac(a2-3)Gal(b1-4)GlcNAc
# Method in brief: as §1
# [32] = target: Neu5Ac9Ac(a2-6)Gal(b1-4)GlcNAc
# Method in brief: as §1
# [33] = target: Neu5Gc(a2-3)Gal(b1-3)GlcNAc
# Method in brief: as §1
# [34] = target: Neu5Gc(a2-3)Gal(b1-3)[Fuc(a1-4)]GlcNAc
# Method in brief: as §1
# Neu5Gc(a2-3)Gal(b1-4)Glc = target: Neu5Gc(a2-3)Gal(b1-4)Glc
# Method in brief: as §1
# [35] = target: Neu5Gc(a2-3)Gal(b1-4)GlcNAc
# Method in brief: as §1
# [36] = target: Neu5Gc(a2-3)Gal(b1-4)GlcNAc(b1-3)Gal(b1-4)GlcNAc(b1-2)Man(a1-3)[Neu5Gc(a2-3)Gal(b1-4)GlcNAc(b1-3)Gal(b1-4)GlcNAc(b1-2)Man(a1-6)]Man(b1-4)GlcNAc(b1-4)GlcNAc
# Method in brief: as §1
# [37] = target: Neu5Gc(a2-3)Gal(b1-4)[Fuc(a1-3)]GlcNAc
# Method in brief: as §1
# [38] = target: Neu5Gc(a2-6)Gal(b1-4)GlcNAc
# Method in brief: as §1
# Neu5Gc(a2-6)GalNAc = target: Neu5Gc(a2-6)GalNAc
# Method in brief: as §1
# [39] = target: Neu5Gc(a2-8)Neu5Ac(a2-3)Gal(b1-4)GlcNAc
# Method in brief: as §1
# [40] = target: Neu5Gc(a2-8)Neu5Gc(a2-3)Gal(b1-4)GlcNAc
# Method in brief: as §1
binder,measurement,setting,value
"AFL6 (Aspergillus fumigatus), Q4WKJ1 (protein) MSFHLTAEDIRIEDGHRLVARLRNADGDLQDASIDLNTCLGNDNGHFQWDGVDFSHSAQDVHFAIEGGGQVPVLRAQLANQDGEFQDADVNLSERIENINGEFVFH",glycan array binding signal (z-score),[1],0.271
same,glycan array binding signal (z-score),[2],3.09
same,glycan array binding signal (z-score),[3],-0.001
same,glycan array binding signal (z-score),[4],1.6
same,glycan array binding signal (z-score),[5],-0.31
same,glycan array binding signal (z-score),[6],0.009
same,glycan array binding signal (z-score),[7],0.093
same,glycan array binding signal (z-score),[8],0.105
same,glycan array binding signal (z-score),[9],0.248
same,glycan array binding signal (z-score),[10],0.854
same,glycan array binding signal (z-score),[11],-0.544
same,glycan array binding signal (z-score),[12],-0.811
same,glycan array binding signal (z-score),Neu5Ac(a2-6)GalNAc,-0.394
same,glycan array binding signal (z-score),[13],-0.522
same,glycan array binding signal (z-score),[14],-0.406
same,glycan array binding signal (z-score),[15],-0.135
same,glycan array binding signal (z-score),[16],-0.104
same,glycan array binding signal (z-score),Neu5Ac(a2-8)Neu5Ac,-0.314
same,glycan array binding signal (z-score),[17],-0.5
same,glycan array binding signal (z-score),[18],0.17
same,glycan array binding signal (z-score),[19],-0.53
same,glycan array binding signal (z-score),[20],-0.406
same,glycan array binding signal (z-score),[21],-0.306
same,glycan array binding signal (z-score),[22],-0.387
same,glycan array binding signal (z-score),[23],-0.492
same,glycan array binding signal (z-score),[24],-0.546
same,glycan array binding signal (z-score),[25],0.228
same,glycan array binding signal (z-score),[26],-0.309
same,glycan array binding signal (z-score),[27],0.549
same,glycan array binding signal (z-score),[28],0.164
same,glycan array binding signal (z-score),[29],-0.01
same,glycan array binding signal (z-score),Neu5Ac(b2-6)GalNAc,-1.29
same,glycan array binding signal (z-score),[30],-0.347
same,glycan array binding signal (z-score),[31],0.416
same,glycan array binding signal (z-score),[32],0.652
same,glycan array binding signal (z-score),[33],0.067
same,glycan array binding signal (z-score),[34],0.513
same,glycan array binding signal (z-score),Neu5Gc(a2-3)Gal(b1-4)Glc,-0.676
same,glycan array binding signal (z-score),[35],-0.448
same,glycan array binding signal (z-score),[36],0.775
same,glycan array binding signal (z-score),[37],0.063
same,glycan array binding signal (z-score),[38],-0.393
same,glycan array binding signal (z-score),Neu5Gc(a2-6)GalNAc,-0.038
same,glycan array binding signal (z-score),[39],-0.692
same,glycan array binding signal (z-score),[40],-0.775

# Copied from the entries so far (3 entries):
binder,measurement,setting,value
"AFL6 (Aspergillus fumigatus), Q4WKJ1 (protein) MSFHLTAEDIRIEDGHRLVARLRNADGDLQDASIDLNTCLGNDNGHFQWDGVDFSHSAQDVHFAIEGGGQVPVLRAQLANQDGEFQDADVNLSERIENINGEFVFH",glycan array binding signal (z-score),[29],-0.01
same,glycan array binding signal (z-score),Neu5Ac(b2-6)GalNAc,-1.29
same,glycan array binding signal (z-score),[30],-0.347
